# Some of the results follow.
# By UniProt entry, the sequences of proteins in these tests, tags left out. Where a name states a change or a piece, a line headed by the entry shows the natural chain unless it says otherwise.
# UniProt Q8N488: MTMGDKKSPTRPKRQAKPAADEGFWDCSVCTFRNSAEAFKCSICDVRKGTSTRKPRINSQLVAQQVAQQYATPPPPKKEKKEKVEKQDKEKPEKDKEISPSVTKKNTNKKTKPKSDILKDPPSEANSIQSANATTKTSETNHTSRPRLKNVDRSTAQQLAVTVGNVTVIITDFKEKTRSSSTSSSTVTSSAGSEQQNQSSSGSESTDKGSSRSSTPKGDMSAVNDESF
# UniProt Q8WTV0: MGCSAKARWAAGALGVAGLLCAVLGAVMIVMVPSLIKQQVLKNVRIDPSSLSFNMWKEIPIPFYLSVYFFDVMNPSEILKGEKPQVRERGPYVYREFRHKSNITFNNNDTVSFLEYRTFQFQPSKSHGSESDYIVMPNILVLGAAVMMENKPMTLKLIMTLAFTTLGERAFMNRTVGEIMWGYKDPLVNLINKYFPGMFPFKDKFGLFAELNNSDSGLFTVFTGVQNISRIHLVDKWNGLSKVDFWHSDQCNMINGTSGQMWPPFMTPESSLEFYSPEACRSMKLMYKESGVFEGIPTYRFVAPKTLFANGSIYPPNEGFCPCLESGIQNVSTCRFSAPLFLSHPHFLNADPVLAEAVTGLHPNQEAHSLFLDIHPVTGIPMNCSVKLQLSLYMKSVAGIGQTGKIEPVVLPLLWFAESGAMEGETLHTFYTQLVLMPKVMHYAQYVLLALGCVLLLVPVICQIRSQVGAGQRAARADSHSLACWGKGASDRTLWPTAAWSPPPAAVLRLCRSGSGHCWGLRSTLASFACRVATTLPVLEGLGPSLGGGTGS
# UniProt Q9NRP4: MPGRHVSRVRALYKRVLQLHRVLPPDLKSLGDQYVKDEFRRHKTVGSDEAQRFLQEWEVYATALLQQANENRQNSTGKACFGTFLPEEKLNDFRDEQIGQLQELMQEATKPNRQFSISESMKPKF
# UniProt Q12770: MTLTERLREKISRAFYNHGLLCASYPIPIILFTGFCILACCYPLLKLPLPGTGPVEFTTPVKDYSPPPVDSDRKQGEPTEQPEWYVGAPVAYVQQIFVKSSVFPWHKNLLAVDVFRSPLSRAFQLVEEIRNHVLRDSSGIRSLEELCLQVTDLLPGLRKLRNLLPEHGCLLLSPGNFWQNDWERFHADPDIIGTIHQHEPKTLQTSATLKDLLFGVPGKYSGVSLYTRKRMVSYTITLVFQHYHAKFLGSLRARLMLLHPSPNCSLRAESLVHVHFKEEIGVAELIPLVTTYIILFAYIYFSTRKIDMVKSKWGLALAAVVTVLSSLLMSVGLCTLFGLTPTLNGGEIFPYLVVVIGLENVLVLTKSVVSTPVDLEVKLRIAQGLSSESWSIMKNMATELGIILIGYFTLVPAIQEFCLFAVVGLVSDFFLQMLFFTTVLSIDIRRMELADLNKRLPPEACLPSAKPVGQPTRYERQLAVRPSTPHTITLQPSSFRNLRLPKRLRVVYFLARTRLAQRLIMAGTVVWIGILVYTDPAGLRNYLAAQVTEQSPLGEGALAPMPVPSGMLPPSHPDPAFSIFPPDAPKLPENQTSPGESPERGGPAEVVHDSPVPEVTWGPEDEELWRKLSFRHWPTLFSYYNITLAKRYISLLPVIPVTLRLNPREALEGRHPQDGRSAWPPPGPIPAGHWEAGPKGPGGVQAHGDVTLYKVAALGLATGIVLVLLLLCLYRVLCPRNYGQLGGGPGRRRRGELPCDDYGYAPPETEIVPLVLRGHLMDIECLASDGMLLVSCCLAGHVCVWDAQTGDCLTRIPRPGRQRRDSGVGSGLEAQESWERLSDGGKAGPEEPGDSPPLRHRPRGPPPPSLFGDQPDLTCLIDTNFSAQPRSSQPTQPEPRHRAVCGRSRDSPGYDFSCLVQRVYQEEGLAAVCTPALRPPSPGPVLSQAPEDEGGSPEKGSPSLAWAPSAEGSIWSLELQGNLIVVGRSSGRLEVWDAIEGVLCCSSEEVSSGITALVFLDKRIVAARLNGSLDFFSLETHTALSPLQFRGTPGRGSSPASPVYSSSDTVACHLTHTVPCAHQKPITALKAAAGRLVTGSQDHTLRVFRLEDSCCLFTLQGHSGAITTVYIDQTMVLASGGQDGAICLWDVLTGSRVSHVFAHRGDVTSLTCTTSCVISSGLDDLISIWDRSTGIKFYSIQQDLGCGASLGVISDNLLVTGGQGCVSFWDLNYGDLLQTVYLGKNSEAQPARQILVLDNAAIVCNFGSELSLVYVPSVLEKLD
# UniProt Q9Y224: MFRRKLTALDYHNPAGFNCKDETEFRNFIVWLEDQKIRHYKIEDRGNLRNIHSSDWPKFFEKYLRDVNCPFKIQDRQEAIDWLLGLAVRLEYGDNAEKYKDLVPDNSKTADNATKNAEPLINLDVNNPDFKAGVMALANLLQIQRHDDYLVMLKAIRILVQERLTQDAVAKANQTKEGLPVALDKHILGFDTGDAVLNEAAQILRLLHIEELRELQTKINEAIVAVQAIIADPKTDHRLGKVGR
# UniProt Q96BY9: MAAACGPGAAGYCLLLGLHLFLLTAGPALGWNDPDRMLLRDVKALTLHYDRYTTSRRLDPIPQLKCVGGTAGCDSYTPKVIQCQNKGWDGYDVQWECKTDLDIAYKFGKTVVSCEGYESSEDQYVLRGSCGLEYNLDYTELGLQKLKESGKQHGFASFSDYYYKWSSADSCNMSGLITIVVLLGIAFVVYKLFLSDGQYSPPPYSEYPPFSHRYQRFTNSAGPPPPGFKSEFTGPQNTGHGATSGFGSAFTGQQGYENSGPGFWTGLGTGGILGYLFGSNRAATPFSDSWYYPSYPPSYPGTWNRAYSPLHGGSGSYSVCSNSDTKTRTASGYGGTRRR
# UniProt P22307: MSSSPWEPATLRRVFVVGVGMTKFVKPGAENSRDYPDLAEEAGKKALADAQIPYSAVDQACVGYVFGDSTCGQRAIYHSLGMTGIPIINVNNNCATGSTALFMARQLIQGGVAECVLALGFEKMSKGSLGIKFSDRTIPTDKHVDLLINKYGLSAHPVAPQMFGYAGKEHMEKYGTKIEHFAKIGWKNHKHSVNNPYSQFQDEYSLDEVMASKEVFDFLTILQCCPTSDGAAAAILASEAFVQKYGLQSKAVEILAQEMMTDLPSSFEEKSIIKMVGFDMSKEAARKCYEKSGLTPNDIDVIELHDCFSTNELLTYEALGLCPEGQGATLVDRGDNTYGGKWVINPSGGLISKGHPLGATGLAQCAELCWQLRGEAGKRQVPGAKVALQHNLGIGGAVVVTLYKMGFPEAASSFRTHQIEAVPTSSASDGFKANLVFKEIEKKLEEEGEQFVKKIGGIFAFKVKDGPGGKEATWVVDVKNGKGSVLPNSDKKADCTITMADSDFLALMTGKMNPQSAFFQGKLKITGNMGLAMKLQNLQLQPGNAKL
# UniProt O00422: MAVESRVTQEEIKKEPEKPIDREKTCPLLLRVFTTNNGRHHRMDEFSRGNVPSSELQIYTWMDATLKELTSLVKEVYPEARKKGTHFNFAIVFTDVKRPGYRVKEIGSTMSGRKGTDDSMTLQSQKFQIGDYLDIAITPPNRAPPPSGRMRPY
# UniProt O00442: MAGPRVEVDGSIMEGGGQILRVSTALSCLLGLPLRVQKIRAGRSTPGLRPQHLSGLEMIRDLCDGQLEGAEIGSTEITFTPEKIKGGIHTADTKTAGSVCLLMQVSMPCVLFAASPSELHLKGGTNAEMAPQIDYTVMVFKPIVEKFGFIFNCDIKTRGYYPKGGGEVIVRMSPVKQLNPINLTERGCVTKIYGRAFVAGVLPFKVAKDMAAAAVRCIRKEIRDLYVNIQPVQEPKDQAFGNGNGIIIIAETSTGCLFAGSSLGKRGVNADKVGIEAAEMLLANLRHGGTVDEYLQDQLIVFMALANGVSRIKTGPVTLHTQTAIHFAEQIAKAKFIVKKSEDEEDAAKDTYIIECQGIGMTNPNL
# UniProt Q9UHR5: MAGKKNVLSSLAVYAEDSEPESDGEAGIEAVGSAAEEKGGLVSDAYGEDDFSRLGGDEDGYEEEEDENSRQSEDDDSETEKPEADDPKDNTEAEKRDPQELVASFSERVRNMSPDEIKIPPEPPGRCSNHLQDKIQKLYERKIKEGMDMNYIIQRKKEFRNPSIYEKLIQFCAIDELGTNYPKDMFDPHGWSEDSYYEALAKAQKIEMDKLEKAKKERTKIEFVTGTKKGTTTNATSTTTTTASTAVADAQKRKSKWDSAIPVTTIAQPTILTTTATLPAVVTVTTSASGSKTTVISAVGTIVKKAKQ
# UniProt O95969: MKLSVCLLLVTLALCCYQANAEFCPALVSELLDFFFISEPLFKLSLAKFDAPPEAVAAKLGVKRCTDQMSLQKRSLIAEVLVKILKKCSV
# UniProt O94855: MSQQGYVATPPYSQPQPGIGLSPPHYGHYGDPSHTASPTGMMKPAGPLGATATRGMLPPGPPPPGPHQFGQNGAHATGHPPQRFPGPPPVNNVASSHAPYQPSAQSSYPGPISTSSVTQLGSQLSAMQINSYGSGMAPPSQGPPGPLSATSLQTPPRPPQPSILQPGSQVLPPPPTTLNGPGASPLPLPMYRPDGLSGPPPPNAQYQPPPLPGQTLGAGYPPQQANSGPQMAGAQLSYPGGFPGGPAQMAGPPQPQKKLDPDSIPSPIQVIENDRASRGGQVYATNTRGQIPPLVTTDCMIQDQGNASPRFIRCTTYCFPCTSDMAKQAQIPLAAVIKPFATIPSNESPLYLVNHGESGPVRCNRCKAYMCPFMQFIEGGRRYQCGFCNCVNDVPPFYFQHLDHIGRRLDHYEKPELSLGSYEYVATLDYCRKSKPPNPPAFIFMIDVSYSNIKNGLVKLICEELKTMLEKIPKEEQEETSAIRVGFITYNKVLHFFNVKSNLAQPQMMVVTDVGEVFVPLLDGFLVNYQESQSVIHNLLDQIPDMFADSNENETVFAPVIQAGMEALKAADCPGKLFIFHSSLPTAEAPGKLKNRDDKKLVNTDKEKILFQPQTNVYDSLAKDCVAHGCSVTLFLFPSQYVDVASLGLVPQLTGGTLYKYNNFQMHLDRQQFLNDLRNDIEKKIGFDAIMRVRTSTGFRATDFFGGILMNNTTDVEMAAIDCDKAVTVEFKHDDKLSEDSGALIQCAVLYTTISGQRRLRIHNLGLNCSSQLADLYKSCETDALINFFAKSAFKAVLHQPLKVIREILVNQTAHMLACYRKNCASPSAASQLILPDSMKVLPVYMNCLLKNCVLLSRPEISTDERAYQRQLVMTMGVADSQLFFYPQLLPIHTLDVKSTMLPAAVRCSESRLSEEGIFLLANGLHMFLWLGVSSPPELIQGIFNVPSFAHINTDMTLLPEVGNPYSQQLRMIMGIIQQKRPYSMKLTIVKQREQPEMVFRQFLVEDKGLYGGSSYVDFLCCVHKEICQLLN
# UniProt Q15404: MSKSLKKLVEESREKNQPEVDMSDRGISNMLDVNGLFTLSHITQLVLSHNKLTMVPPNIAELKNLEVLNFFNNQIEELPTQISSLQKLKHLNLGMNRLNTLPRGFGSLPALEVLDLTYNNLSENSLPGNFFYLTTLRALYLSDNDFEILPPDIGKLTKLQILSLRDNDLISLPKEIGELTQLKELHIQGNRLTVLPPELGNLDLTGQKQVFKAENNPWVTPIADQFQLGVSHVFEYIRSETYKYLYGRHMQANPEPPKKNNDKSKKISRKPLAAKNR
# UniProt Q14684: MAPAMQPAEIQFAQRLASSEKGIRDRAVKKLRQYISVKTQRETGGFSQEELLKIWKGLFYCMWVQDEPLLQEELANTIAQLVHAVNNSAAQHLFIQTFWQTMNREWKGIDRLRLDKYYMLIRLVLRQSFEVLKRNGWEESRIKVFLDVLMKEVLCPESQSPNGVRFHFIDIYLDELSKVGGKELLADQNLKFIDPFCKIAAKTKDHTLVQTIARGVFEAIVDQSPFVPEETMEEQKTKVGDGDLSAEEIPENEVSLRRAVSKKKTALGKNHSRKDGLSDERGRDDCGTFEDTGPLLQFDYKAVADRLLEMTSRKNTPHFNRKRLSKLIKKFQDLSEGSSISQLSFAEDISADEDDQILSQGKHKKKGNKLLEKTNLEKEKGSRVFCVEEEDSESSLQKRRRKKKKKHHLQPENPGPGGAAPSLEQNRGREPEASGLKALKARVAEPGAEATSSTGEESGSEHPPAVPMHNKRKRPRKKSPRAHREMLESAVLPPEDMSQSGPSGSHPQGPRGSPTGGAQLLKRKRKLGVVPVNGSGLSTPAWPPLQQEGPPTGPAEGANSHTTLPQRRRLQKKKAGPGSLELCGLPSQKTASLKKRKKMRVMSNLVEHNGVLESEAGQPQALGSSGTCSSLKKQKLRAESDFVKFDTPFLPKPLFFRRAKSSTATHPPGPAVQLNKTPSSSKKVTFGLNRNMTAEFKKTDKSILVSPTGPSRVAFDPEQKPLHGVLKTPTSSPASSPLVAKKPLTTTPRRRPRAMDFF
# UniProt Q9Y3A4: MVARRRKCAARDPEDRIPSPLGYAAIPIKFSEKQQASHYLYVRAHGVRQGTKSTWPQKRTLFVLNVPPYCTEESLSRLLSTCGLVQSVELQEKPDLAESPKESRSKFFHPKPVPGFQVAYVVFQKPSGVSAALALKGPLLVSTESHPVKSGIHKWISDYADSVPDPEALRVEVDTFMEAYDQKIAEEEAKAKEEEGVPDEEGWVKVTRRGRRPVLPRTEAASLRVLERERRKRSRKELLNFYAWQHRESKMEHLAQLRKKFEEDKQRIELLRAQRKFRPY
# Compound: c1cn2cc(-c3ccc4cn[nH]c4c3)nc(Nc3ccc(N4CCOCC4)cc3)c2n1 [entospletinib]
# Test: log2 fold change, soluble protein after heating vs DMSO (PISA); higher = thermal stabilisation; K562 cells, 10 uM, 30 min; active = over 0.2 and 3.5 SD of the protein, either way, in both replicates (recomputed)
# In short: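 K562 cells at 2×10^6 cells/mL were treated with 10 μM compound for 30 min. Aliquots were heated for 3 min across 48°C-58°C, pooled, and extracted in PBS with 0.5% NP-40 at 4°C; soluble protein was the supernatant after 21,000xg for 90 min. Soluble protein was quantified by TMTpro 16plex LC-MS/MS with channel sums equalised, and reported as log2 fold change in thermal stability against DMSO controls, with values from duplicates.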
row,Target,log2 fold change
1,RYBP (UniProt Q8N488),inactive: -0.029
2,SCAMP3 isoform 2 (UniProt O14828),inactive: 0.18
3,SCARB1 isoform 2 (UniProt Q8WTV0),inactive: 0.007
4,SDHAF3 (UniProt Q9NRP4),inactive: 0.056
5,SCAP (UniProt Q12770),inactive: -0.018
6,SART1 (UniProt O43290),inactive: 0.053
7,RTRAF (UniProt Q9Y224),inactive: 0.048
8,SAR1A (UniProt Q9NR31),inactive: 0.033
9,SARAF (UniProt Q96BY9),inactive: 0.055
10,SCP2 (UniProt P22307),inactive: 0.011
11,SAP18 isoform 2 (UniProt O00422),inactive: 0.19
12,RTCA (UniProt O00442),inactive: 0.023
13,SAP30BP (UniProt Q9UHR5),inactive: 0.027
14,SCGB1D2 (UniProt O95969),inactive: 0.072
15,SEC24B isoform 3 (UniProt O95487),inactive: 0.034
16,SEC24D isoform 2 (UniProt O94855),inactive: -0.015
17,SBF1 isoform 4 (UniProt O95248),inactive: 0.121
18,RSU1 (UniProt Q15404),inactive: -0.019
19,SDR39U1 (UniProt Q9NRG7),inactive: 0.611
20,RRP1B (UniProt Q14684),inactive: 0.124
21,SCAMP3 (UniProt O14828),inactive: 0.003
22,RRP7A (UniProt Q9Y3A4),inactive: 0.079

# 2 records drawn at random from those above:
row,Target,log2 fold change
7,RTRAF (UniProt Q9Y224),inactive: 0.048
11,SAP18 isoform 2 (UniProt O00422),inactive: 0.19
